PubChem BioAssay AID2685 (National Center for Advancing Translational Sciences (NCATS), 2010)
This is one part of the list. Shown are side measurements of this screen, not its main read-out; they come without a call. Compounds called inactive in the main read-out are mostly missing here. Words in brackets tell the shape of the fitted curve; partial curves, single points and poor fits give uncertain potencies.

Assay: qHTS Assay for Lipid Storage Modulators in Drosophila S3 Cells;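 on cell number change: cells counted by Cell Tracker Red CMTPX staining in the red channel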
Details: BODIPY lipid droplet fluorescence, 18-24 h; for cell number change: measured here: cell count max response, cells fed with added oleic acid
Summary of the method: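 Laser-scanning cytometry quantifies lipid droplet accumulation (500–530 nm total intensity; droplet/cell object ratio) in oleic acid-fed (400 uM added) Drosophila S3 cells treated with a concentration series. 20 uM Triacsin C defined 100% inhibition.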

[1] = measured here: cell number channel AC50, cells fed with added oleic acid
[2] = measured here: lipid fluorescence (Fed channel) AC50, cells fed with added oleic acid

| SMILES | cell number change [%] | AC50 [1] | AC50 [2] |
| --- | --- | --- | --- |
| Cc1[nH]n(-c2ccccc2)c(=O)c1N=Nc1ccc2c(c1)OCCO2 | -64.5 | 29.1 µM [falling, single point] |  |
| COc1ccc([N+](=O)[O-])cc1/C=N/NC(=O)c1nonc1N | 33.5 | 0.00461 µM [rising, full curve] |  |
| CC1CCc2c(sc(NC(=O)c3ccc(N4C(=O)CCC4=O)cc3)c2C(N)=O)C1 (configuration not stated) | 3.98 |  | 7.31 µM [rising, single point] |
| CCOC(=O)c1cnn(CCOC(=O)c2cccc(F)c2)c1NC(=O)c1cccc(F)c1 | -40.1 | 20.6 µM [falling, single point] | 4.61 µM [falling, single point] |
| C=CCNC(=O)c1oc2ccc(S(=O)(=O)N(CC)CC)cc2c1C | -33.3 | 1.84 µM [falling, full curve] | 1.64 µM [falling, full curve, poor fit] |
| CCOC(=O)C(NCCCCl)c1ccccc1 (configuration not stated) | -24.8 |  |  |
| CN(C)S(=O)(=O)N1CCN(C(=O)N2CCCCC2)CC1 | -41.7 | 14.6 µM [falling, partial curve] |  |
| COc1cccc(C2c3[nH]c4ccccc4c3C[C@H]3C(=O)N(c4ccccc4C(=O)N4CCCC4C(=O)O)C(=O)N23)c1 (some centres not stated) | 15.9 |  |  |
| CCCCc1ccc(NC(=O)CC(C)(C)C)cc1 | -0.344 |  | 32.6 µM [falling, single point] |
| CC(C)COC(=O)COc1cc(Cl)c(Cl)cc1Cl | 6.73 |  |  |
| CCCCn1c(N)c(N(CC(C)C)C(=O)C2CCCN(C(=O)c3ccc(Cl)cc3)C2)c(=O)[nH]c1=O (configuration not stated) | -3.31 |  | 6.51 µM [rising, single point] |
| CCN(C(=O)c1ccc2c(=O)n3c(nc2c1)CCCCC3)c1ccccc1C | -18.7 | 1.64 µM [falling, partial curve, poor fit] |  |
| O=S(=O)(NCC1(N2CCOCC2)CCCCC1)c1ccccc1Cl |  |  | 0.82 µM [falling, single point] |
| CC(C)n1nc(C(=O)OCC(=O)N2CC(=O)Nc3ccccc32)c2ccccc2c1=O | -36.9 |  |  |
| CCOC(=O)C1=C(C)C2C3C(=O)N(c4ccc(C)cc4C)C(=O)C3C1(C)C1C(=O)N(c3ccc(C)cc3C)C(=O)C21 (configuration not stated) | 3.47 |  | 3.66 µM [rising, single point] |
| O=C(CC1S/C(=N/N=C2CCCCCC2)NC1=O)Nc1ccccc1F (configuration not stated) | -11.9 |  | 0.58 µM [rising, single point] |
| CN1C(=O)C(C)(C)c2cc(S(=O)(=O)N3CCC(C(=O)NCc4ccc(Cl)cc4)CC3)ccc21 | 8.06 |  |  |
| Cc1cc(C(=O)CSc2nnc(-c3ccccc3)n2Cc2ccc3c(c2)OCO3)c(C)n1C | -90.7 | 18.4 µM [falling, single point] | 29.1 µM [falling, single point] |
| CCCOc1ccc(/C=N/NC(=S)Nc2ccccc2[N+](=O)[O-])c(O)c1 | -20.7 |  | 6.51 µM [rising, full curve] |

| SMILES | cell number change [%] | AC50 [1] | AC50 [2] |
| --- | --- | --- | --- |
| CN(C)S(=O)(=O)c1cccc(C(=O)Nc2ccc3c(c2)CCC3)c1 | 17.1 |  |  |
| Cc1ccc(Cc2cc(-c3ccc(C)cc3)n[nH]c2=O)cc1 | 7.07 |  | 0.00517 µM [falling, full curve, poor fit] |
| CC1CC(C)CN(CCCNC(=O)c2ccc3nc(N4CCOCC4)sc3c2)C1 (configuration not stated) | 23.1 |  |  |
| Cc1nnsc1NC(=O)OCC(C)(C)C | -39.4 |  | 11.6 µM [rising, single point] |
| COCCN1Cc2cccc(C(=O)Nc3c(C)cccc3C)c2C1=O |  | 1.3 µM [rising, partial curve] | 0.731 µM [rising, full curve] |
| O=C1CCC(C(=O)N2CCC(CO)CC2)CN1Cc1ccc(Cl)cc1 (configuration not stated) | 3.47 |  | 1.16 µM [rising, full curve, poor fit] |
| Cc1c(Cl)cccc1-n1c(SCC(=O)N2CCC(C(=O)O)CC2)nc2ccccc2c1=O | -11.5 |  |  |
| CCOC(=O)COc1ccc(C2NC(C(=O)O)CS2)cc1 (configuration not stated) | -177 | 29.1 µM [falling, partial curve] | 23.1 µM [falling, partial curve] |
| COCCOc1ccc(C(F)(F)F)cc1NC(=O)CN1C(=O)NC(C)(c2ccc3c(c2)OCO3)C1=O (configuration not stated) | 13.5 |  |  |
| O=C(NC(=S)Nc1cccnc1)c1cccc(Br)c1 | -6.58 | 0.517 µM [falling, single point] |  |
| COc1ccccc1C1C(C(=O)c2sc(C)nc2C)=C(O)C(=O)N1CCN1CCOCC1 (configuration not stated) | 5.1 |  |  |
| O=C(C[n+]1cccc2ccccc21)c1ccc(NC(=O)c2ccccc2)cc1 | -8.71 | 1.84 µM [falling, partial curve, poor fit] | 0.00461 µM [falling, full curve, poor fit] |
| CNC(=O)CN(c1cc(C)ccc1C)S(C)(=O)=O | -3.43 |  |  |
| COc1ccc(NC(=O)C2CCN(C(=O)c3cccs3)CC2)cc1OC | 55.7 | 10.3 µM [rising, partial curve, poor fit] |  |
| Cc1nc(C)c(NC(=O)N2CCc3ccccc32)cc1NC(=O)N1CCc2ccccc21 | -0.443 |  | 6.51 µM [rising, full curve, poor fit] |
| O=C1CCC(=O)N1CN(C(=O)c1ccco1)c1ccc(Cl)c(Cl)c1 | -33.2 | 0.82 µM [falling, full curve, poor fit] | 4.61 µM [falling, full curve, poor fit] |
| CC(NC(=O)c1cccnc1Sc1ccccc1)c1ccc(S(N)(=O)=O)cc1 (configuration not stated) | 22.7 | 4.11 µM [rising, full curve, poor fit] | 18.4 µM [rising, partial curve] |
| CCSC1=NC(=O)/C(=C2/C=Cc3ccccc3N2CC)S1 | -94.1 | 29.1 µM [falling, single point] | 29.1 µM [falling, single point] |
| CC12CCC(=O)N1C(C(=O)Nc1ccc(F)c(F)c1F)CS2 (configuration not stated) | -9.96 |  | 0.651 µM [falling, single point] |

Sorted by molar mass (high to low): 3 of the compounds above.

| SMILES | cell number change [%] | AC50 [1] | AC50 [2] |
| --- | --- | --- | --- |
| CC1CC(C)CN(CCCNC(=O)c2ccc3nc(N4CCOCC4)sc3c2)C1 (configuration not stated) | 23.1 |  |  |
| Cc1ccc(Cc2cc(-c3ccc(C)cc3)n[nH]c2=O)cc1 | 7.07 |  | 0.00517 µM [falling, full curve, poor fit] |
| CNC(=O)CN(c1cc(C)ccc1C)S(C)(=O)=O | -3.43 |  |  |
